Data taken from the supplement of paper PMC10032668.
The list shows a part of the results. Only hits are listed; about a third recur on repeated control peptides.

The chains behind the UniProt entries cited, without tags or fusion partners.
POM121C, A8CG34, UniProt A8CG34, whole entry: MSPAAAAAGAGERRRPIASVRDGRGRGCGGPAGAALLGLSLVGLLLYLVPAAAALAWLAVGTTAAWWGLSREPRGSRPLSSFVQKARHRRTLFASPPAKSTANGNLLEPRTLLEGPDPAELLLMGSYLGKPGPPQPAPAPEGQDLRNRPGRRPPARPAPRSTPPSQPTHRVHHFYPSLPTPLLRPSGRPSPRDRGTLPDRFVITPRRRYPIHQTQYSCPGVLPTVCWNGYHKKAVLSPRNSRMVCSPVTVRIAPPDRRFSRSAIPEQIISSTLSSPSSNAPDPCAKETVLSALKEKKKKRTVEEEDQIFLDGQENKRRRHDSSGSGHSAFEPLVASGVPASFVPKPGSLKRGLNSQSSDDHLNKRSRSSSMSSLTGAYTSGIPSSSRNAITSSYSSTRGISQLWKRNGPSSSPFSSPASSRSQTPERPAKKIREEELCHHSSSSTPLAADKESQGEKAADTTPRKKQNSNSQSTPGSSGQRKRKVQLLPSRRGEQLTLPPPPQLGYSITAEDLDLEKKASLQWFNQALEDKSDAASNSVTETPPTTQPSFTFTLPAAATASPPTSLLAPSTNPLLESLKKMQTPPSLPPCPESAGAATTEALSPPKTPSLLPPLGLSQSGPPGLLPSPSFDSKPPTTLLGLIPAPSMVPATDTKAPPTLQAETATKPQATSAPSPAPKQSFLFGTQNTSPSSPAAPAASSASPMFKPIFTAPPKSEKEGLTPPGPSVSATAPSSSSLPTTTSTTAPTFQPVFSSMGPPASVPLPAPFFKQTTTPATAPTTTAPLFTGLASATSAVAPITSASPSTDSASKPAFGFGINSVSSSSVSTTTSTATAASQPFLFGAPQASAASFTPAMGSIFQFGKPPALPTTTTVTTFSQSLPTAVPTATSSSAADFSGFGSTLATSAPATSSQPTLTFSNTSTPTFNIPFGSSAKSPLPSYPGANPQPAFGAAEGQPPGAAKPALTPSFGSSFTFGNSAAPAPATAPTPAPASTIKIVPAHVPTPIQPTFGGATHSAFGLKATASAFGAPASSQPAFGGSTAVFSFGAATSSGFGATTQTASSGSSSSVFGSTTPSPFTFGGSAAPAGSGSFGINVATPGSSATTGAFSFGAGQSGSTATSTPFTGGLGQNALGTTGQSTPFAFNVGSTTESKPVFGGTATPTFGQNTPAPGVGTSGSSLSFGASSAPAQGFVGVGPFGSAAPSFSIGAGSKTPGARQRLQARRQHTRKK
RBBP5, Q15291, UniProt Q15291, whole entry: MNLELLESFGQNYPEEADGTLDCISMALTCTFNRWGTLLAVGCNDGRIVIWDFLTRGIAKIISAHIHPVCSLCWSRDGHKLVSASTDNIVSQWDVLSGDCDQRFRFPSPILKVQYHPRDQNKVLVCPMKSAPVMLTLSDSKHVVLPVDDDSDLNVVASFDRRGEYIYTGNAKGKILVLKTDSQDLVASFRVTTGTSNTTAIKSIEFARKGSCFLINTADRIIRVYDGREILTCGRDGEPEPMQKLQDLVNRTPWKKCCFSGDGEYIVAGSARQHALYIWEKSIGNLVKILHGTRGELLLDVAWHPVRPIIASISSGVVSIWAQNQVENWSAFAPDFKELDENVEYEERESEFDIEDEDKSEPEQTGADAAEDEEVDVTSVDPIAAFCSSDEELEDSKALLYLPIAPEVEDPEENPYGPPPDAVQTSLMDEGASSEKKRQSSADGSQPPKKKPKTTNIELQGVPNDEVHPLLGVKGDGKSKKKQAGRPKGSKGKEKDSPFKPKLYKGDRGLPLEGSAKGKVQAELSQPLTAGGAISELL
RRM2, P31350, UniProt P31350, whole entry: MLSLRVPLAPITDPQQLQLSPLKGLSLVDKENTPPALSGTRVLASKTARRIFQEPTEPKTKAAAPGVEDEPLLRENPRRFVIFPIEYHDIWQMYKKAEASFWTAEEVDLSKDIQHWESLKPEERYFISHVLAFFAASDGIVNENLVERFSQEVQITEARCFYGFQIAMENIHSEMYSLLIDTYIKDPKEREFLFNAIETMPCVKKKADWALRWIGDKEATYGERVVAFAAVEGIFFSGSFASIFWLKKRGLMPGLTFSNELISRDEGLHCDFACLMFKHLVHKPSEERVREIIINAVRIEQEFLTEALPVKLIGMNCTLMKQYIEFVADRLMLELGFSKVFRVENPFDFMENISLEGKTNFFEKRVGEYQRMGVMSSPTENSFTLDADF
SETD1A, O15047, UniProt O15047, whole entry: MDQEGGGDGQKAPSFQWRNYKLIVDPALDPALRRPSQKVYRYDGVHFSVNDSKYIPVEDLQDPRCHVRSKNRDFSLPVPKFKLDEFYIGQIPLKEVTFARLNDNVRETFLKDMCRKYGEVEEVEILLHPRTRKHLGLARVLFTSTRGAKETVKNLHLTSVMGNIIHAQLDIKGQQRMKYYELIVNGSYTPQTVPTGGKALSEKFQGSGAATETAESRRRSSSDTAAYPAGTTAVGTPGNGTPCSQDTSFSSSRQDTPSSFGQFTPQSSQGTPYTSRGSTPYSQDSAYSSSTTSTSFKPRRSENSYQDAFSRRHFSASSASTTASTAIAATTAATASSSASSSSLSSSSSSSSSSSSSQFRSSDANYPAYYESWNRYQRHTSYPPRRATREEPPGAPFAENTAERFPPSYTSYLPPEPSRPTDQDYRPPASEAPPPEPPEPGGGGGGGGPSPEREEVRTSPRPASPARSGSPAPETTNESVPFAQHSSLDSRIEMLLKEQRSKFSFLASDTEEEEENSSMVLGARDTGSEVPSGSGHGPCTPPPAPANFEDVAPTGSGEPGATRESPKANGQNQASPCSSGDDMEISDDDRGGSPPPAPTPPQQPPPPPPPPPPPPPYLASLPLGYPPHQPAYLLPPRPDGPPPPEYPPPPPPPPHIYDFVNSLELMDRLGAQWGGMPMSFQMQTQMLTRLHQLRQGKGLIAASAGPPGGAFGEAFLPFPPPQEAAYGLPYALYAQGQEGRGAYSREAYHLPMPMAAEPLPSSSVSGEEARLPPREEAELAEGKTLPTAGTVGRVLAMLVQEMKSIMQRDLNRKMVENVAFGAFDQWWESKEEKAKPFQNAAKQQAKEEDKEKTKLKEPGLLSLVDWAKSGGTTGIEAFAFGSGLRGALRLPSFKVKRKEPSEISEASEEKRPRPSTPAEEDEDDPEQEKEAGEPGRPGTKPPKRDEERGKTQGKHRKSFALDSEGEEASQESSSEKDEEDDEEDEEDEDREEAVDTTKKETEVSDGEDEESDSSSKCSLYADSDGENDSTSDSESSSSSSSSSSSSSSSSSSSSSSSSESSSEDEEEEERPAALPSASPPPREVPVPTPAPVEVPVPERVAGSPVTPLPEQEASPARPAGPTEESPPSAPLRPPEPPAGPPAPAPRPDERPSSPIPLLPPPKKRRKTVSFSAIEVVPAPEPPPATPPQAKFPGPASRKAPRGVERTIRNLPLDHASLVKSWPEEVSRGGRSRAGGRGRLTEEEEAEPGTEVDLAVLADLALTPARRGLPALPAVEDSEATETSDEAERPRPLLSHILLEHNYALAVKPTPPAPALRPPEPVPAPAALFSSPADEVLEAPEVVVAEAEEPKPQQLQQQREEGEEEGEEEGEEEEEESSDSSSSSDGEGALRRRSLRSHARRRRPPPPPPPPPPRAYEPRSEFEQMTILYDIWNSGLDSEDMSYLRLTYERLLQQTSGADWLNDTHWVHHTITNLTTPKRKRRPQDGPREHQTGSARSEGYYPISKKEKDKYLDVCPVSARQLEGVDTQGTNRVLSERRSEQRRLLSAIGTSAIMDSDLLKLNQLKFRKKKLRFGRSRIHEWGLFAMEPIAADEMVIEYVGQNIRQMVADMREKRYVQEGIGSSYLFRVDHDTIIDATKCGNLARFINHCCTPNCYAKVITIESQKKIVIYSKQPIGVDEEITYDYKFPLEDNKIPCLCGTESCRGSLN
SMARCA5, O60264, UniProt O60264, whole entry: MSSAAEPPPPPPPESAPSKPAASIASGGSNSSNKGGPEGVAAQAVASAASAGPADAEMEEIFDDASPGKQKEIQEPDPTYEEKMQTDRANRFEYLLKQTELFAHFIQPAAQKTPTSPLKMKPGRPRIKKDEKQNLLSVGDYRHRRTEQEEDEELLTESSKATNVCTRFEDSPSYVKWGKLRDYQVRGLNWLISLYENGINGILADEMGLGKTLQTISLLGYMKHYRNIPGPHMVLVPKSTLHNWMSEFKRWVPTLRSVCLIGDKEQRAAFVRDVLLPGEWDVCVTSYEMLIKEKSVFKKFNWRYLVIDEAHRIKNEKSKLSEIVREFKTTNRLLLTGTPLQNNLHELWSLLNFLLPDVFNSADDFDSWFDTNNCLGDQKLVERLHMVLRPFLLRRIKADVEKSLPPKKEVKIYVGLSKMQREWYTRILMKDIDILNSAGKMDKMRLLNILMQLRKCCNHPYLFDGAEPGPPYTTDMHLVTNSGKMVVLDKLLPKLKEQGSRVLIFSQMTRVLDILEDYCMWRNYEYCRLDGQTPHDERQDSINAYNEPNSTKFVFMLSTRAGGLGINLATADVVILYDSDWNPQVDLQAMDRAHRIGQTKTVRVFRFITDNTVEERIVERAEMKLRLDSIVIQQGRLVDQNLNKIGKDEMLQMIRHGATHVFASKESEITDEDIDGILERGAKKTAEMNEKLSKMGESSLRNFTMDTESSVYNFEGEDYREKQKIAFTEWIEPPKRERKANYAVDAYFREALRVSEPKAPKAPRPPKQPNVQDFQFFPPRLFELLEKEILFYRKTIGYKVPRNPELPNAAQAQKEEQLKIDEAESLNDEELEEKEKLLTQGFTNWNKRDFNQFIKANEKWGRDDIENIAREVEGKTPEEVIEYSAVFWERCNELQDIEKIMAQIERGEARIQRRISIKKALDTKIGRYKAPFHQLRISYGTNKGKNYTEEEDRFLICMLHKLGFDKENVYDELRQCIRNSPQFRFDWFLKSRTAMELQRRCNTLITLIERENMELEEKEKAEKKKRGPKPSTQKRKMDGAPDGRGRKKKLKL
UBN2, Q6ZU65, UniProt Q6ZU65, whole entry: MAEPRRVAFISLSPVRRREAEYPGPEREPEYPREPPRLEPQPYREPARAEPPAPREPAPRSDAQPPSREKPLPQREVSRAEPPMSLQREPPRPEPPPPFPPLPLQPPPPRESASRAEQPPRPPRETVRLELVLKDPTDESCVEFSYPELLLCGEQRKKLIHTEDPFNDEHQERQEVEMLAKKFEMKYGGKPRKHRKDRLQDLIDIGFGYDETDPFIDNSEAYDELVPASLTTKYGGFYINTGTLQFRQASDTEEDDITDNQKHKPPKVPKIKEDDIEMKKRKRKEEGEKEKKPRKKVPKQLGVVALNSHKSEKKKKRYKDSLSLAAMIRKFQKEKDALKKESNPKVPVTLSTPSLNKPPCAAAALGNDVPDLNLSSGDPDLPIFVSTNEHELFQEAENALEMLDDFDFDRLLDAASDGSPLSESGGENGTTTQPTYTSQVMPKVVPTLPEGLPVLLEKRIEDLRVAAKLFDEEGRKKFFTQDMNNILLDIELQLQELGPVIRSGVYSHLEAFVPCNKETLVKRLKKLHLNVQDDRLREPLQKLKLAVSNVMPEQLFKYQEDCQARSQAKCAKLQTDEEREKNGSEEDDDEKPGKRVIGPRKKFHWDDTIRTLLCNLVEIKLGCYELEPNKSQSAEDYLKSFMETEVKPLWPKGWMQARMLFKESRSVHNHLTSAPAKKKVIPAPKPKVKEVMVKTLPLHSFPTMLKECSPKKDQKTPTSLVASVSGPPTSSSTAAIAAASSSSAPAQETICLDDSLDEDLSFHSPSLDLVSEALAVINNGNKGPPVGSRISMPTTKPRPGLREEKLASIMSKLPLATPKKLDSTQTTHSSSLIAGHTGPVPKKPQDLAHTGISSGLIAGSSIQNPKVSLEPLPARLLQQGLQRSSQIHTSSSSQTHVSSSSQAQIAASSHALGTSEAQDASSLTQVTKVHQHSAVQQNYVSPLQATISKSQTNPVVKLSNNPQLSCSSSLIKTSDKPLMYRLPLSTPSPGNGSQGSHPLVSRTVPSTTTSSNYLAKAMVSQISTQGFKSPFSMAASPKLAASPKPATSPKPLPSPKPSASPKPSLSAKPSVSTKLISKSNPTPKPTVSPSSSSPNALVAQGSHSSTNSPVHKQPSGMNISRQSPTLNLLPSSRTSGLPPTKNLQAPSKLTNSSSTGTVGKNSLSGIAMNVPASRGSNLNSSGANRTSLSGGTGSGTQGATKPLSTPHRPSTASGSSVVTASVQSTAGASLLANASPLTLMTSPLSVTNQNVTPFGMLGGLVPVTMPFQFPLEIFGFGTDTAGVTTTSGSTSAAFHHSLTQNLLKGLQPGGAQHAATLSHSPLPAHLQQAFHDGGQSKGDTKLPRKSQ
WDR82, Q6UXN9, UniProt Q6UXN9, whole entry: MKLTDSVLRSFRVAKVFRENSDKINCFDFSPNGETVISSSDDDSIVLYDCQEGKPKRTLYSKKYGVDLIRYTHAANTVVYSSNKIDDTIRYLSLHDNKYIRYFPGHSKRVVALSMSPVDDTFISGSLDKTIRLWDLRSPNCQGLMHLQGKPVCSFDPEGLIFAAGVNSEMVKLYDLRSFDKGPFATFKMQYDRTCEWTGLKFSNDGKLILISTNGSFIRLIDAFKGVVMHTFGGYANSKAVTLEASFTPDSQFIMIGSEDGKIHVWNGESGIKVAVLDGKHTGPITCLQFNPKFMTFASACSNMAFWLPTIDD

What was measured:
Assay in all cases: PRISMA enrichment of interactor (LFQ) in peptide spot vs all other peptide spots (log2 fold change); higher = stronger / more specific binding of the interactor to the peptide
PDLIM1, O00151 = target: PDLIM1, O00151
Experimental: (§1)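 PRISMA: 221 full-length sORF-encoded peptides (3-15 aa), plus SOS1/GLUT1 control peptides, were spot-synthesized on cellulose membranes in triplicate. Membranes were incubated with HEK293T lysate, and bound proteins were identified by LC-MS/MS with LFQ. Enrichment is the log2 fold change versus all other peptide spots; only significant interactors are listed (cutoff c=6, x0=2.8).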

PICALM, Q13492 = target: PICALM, Q13492
Experimental: as §1

PINX1, Q96BK5 = target: PINX1, Q96BK5
Experimental: as §1

POGZ, Q7Z3K3 = target: POGZ, Q7Z3K3
Experimental: as §1

POLDIP3, Q9BY77 = target: POLDIP3, Q9BY77
Experimental: as §1

POM121C, A8CG34 = target: POM121C, A8CG34
Experimental: as §1

PPP1R10, Q96QC0 = target: PPP1R10, Q96QC0
Experimental: as §1

PRRC2B, Q5JSZ5 = target: PRRC2B, Q5JSZ5
Experimental: as §1

PRRC2C, Q9Y520 = target: PRRC2C, Q9Y520
Experimental: as §1

PSRC1, Q6PGN9 = target: PSRC1, Q6PGN9
Experimental: as §1

PUM1, Q14671 = target: PUM1, Q14671
Experimental: as §1

QKI, Q96PU8 = target: QKI, Q96PU8
Experimental: as §1

QRICH1, Q2TAL8 = target: QRICH1, Q2TAL8
Experimental: as §1

RACGAP1, Q9H0H5 = target: RACGAP1, Q9H0H5
Experimental: as §1

RBBP5, Q15291 = target: RBBP5, Q15291
Experimental: as §1

RBIS, Q8N0T1 = target: RBIS, Q8N0T1
Experimental: as §1

RBM14, Q96PK6 = target: RBM14, Q96PK6
Experimental: as §1

RBM26, Q5T8P6 = target: RBM26, Q5T8P6
Experimental: as §1

RBM27, Q9P2N5 = target: RBM27, Q9P2N5
Experimental: as §1

RBM33, Q96EV2 = target: RBM33, Q96EV2
Experimental: as §1

RBMS1, P29558 = target: RBMS1, P29558
Experimental: as §1

RRM2, P31350 = target: RRM2, P31350
Experimental: as §1

SAP130, Q9H0E3 = target: SAP130, Q9H0E3
Experimental: as §1

SBDS, Q9Y3A5 = target: SBDS, Q9Y3A5
Experimental: as §1

SCPEP1, Q9HB40 = target: SCPEP1, Q9HB40
Experimental: as §1

SDF2L1, Q9HCN8 = target: SDF2L1, Q9HCN8
Experimental: as §1

SEPTIN11, Q9NVA2 = target: SEPTIN11, Q9NVA2
Experimental: as §1

SEPTIN2, Q15019 = target: SEPTIN2, Q15019
Experimental: as §1

SEPTIN7, Q16181 = target: SEPTIN7, Q16181
Experimental: as §1

SEPTIN8, Q92599 = target: SEPTIN8, Q92599
Experimental: as §1

SEPTIN9, Q9UHD8 = target: SEPTIN9, Q9UHD8
Experimental: as §1

SETD1A, O15047 = target: SETD1A, O15047
Experimental: as §1

SIN3A, Q96ST3 = target: SIN3A, Q96ST3
Experimental: as §1

SMARCA5, O60264 = target: SMARCA5, O60264
Experimental: as §1

SNW1, Q13573 = target: SNW1, Q13573
Experimental: as §1

SPAG5, Q96R06 = target: SPAG5, Q96R06
Experimental: as §1

TAB1, Q15750 = target: TAB1, Q15750
Experimental: as §1

TAB2, Q9NYJ8 = target: TAB2, Q9NYJ8
Experimental: as §1

TBL1XR1, Q9BZK7 = target: TBL1XR1, Q9BZK7
Experimental: as §1

TOX4, O94842 = target: TOX4, O94842
Experimental: as §1

TPX2, Q9ULW0 = target: TPX2, Q9ULW0
Experimental: as §1

UBAP2, Q5T6F2 = target: UBAP2, Q5T6F2
Experimental: as §1

UBAP2L, Q14157 = target: UBAP2L, Q14157
Experimental: as §1

UBE2S, Q16763 = target: UBE2S, Q16763
Experimental: as §1

UBN2, Q6ZU65 = target: UBN2, Q6ZU65
Experimental: as §1

UBXN1, Q04323 = target: UBXN1, Q04323
Experimental: as §1

UFD1, Q92890 = target: UFD1, Q92890
Experimental: as §1

UMPS, P11172 = target: UMPS, P11172
Experimental: as §1

UQCRFS1, P47985 = target: UQCRFS1, P47985
Experimental: as §1

UTP11, Q9Y3A2 = target: UTP11, Q9Y3A2
Experimental: as §1

UTP14A, Q9BVJ6 = target: UTP14A, Q9BVJ6
Experimental: as §1

WDR82, Q6UXN9 = target: WDR82, Q6UXN9
Experimental: as §1

WTAP, Q15007 = target: WTAP, Q15007
Experimental: as §1

XRN1, Q8IZH2 = target: XRN1, Q8IZH2
Experimental: as §1

ZC3H11A, O75152 = target: ZC3H11A, O75152
Experimental: as §1

ZNF281, Q9Y2X9 = target: ZNF281, Q9Y2X9
Experimental: as §1

ZNF638, Q14966 = target: ZNF638, Q14966
Experimental: as §1

MAASSEIIIQVFVS [VPS8]
PRISMA enrichment of interactor (log2) (PDLIM1, O00151): 4.35
PRISMA enrichment of interactor (log2) (PICALM, Q13492): 7.65
PRISMA enrichment of interactor (log2) (PINX1, Q96BK5): 6.8
PRISMA enrichment of interactor (log2) (POGZ, Q7Z3K3): 6.1
PRISMA enrichment of interactor (log2) (POLDIP3, Q9BY77): 7.57
PRISMA enrichment of interactor (log2) (POM121C, A8CG34): 4.65
PRISMA enrichment of interactor (log2) (PPP1R10, Q96QC0): 8.16
PRISMA enrichment of interactor (log2) (PRRC2B, Q5JSZ5): 6.82
PRISMA enrichment of interactor (log2) (PRRC2C, Q9Y520): 6.81
PRISMA enrichment of interactor (log2) (PSRC1, Q6PGN9): 4.9
PRISMA enrichment of interactor (log2) (PUM1, Q14671): 4.7
PRISMA enrichment of interactor (log2) (QKI, Q96PU8): 4.33
PRISMA enrichment of interactor (log2) (QRICH1, Q2TAL8): 8.21
PRISMA enrichment of interactor (log2) (RACGAP1, Q9H0H5): 6.26
PRISMA enrichment of interactor (log2) (RBBP5, Q15291): 5.29
PRISMA enrichment of interactor (log2) (RBIS, Q8N0T1): 4.82
PRISMA enrichment of interactor (log2) (RBM14, Q96PK6): 6.51
PRISMA enrichment of interactor (log2) (RBM26, Q5T8P6): 4.25
PRISMA enrichment of interactor (log2) (RBM27, Q9P2N5): 6.31
PRISMA enrichment of interactor (log2) (RBM33, Q96EV2): 6.75
PRISMA enrichment of interactor (log2) (RBMS1, P29558): 4.51
PRISMA enrichment of interactor (log2) (RRM2, P31350): 4.05
PRISMA enrichment of interactor (log2) (SAP130, Q9H0E3): 3.73
PRISMA enrichment of interactor (log2) (SBDS, Q9Y3A5): 4.68
PRISMA enrichment of interactor (log2) (SCPEP1, Q9HB40): 5.31
PRISMA enrichment of interactor (log2) (SDF2L1, Q9HCN8): 6.57
PRISMA enrichment of interactor (log2) (SEPTIN11, Q9NVA2): 7.93
PRISMA enrichment of interactor (log2) (SEPTIN2, Q15019): 7.39
PRISMA enrichment of interactor (log2) (SEPTIN7, Q16181): 7.25
PRISMA enrichment of interactor (log2) (SEPTIN8, Q92599): 5.73
PRISMA enrichment of interactor (log2) (SEPTIN9, Q9UHD8): 9.4
PRISMA enrichment of interactor (log2) (SETD1A, O15047): 7.5
PRISMA enrichment of interactor (log2) (SIN3A, Q96ST3): 7.08
PRISMA enrichment of interactor (log2) (SMARCA5, O60264): 4.65
PRISMA enrichment of interactor (log2) (SNW1, Q13573): 5.13
PRISMA enrichment of interactor (log2) (SPAG5, Q96R06): 4.73
PRISMA enrichment of interactor (log2) (TAB1, Q15750): 5.96
PRISMA enrichment of interactor (log2) (TAB2, Q9NYJ8): 6.02
PRISMA enrichment of interactor (log2) (TBL1XR1, Q9BZK7): 6.73
PRISMA enrichment of interactor (log2) (TOX4, O94842): 5.8
PRISMA enrichment of interactor (log2) (TPX2, Q9ULW0): 8.06
PRISMA enrichment of interactor (log2) (UBAP2, Q5T6F2): 4.76
PRISMA enrichment of interactor (log2) (UBAP2L, Q14157): 6.41
PRISMA enrichment of interactor (log2) (UBE2S, Q16763): 4.94
PRISMA enrichment of interactor (log2) (UBN2, Q6ZU65): 3.98
PRISMA enrichment of interactor (log2) (UBXN1, Q04323): 4.24
PRISMA enrichment of interactor (log2) (UFD1, Q92890): 4.4
PRISMA enrichment of interactor (log2) (UMPS, P11172): 5.8
PRISMA enrichment of interactor (log2) (UQCRFS1, P47985): 5.01
PRISMA enrichment of interactor (log2) (UTP11, Q9Y3A2): 4.44
PRISMA enrichment of interactor (log2) (UTP14A, Q9BVJ6): 6.4
PRISMA enrichment of interactor (log2) (WDR82, Q6UXN9): 4.47
PRISMA enrichment of interactor (log2) (WTAP, Q15007): 4.95
PRISMA enrichment of interactor (log2) (XRN1, Q8IZH2): 5.72
PRISMA enrichment of interactor (log2) (ZC3H11A, O75152): 6.88
PRISMA enrichment of interactor (log2) (ZNF281, Q9Y2X9): 4.02
PRISMA enrichment of interactor (log2) (ZNF638, Q14966): 8.75
